From the supplement of paper PMC10849652
This is one part of the list.

The chains behind the UniProt entries cited, without tags or fusion partners. Where a name states a change or a piece, a line headed by the entry shows the natural chain unless it says otherwise.
UniProt Q99766: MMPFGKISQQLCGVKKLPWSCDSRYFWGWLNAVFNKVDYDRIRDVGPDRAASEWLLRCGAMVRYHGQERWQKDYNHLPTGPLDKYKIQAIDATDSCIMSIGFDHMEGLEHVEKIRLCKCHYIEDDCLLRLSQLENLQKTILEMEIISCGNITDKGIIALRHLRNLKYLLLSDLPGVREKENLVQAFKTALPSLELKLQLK
UniProt P26358: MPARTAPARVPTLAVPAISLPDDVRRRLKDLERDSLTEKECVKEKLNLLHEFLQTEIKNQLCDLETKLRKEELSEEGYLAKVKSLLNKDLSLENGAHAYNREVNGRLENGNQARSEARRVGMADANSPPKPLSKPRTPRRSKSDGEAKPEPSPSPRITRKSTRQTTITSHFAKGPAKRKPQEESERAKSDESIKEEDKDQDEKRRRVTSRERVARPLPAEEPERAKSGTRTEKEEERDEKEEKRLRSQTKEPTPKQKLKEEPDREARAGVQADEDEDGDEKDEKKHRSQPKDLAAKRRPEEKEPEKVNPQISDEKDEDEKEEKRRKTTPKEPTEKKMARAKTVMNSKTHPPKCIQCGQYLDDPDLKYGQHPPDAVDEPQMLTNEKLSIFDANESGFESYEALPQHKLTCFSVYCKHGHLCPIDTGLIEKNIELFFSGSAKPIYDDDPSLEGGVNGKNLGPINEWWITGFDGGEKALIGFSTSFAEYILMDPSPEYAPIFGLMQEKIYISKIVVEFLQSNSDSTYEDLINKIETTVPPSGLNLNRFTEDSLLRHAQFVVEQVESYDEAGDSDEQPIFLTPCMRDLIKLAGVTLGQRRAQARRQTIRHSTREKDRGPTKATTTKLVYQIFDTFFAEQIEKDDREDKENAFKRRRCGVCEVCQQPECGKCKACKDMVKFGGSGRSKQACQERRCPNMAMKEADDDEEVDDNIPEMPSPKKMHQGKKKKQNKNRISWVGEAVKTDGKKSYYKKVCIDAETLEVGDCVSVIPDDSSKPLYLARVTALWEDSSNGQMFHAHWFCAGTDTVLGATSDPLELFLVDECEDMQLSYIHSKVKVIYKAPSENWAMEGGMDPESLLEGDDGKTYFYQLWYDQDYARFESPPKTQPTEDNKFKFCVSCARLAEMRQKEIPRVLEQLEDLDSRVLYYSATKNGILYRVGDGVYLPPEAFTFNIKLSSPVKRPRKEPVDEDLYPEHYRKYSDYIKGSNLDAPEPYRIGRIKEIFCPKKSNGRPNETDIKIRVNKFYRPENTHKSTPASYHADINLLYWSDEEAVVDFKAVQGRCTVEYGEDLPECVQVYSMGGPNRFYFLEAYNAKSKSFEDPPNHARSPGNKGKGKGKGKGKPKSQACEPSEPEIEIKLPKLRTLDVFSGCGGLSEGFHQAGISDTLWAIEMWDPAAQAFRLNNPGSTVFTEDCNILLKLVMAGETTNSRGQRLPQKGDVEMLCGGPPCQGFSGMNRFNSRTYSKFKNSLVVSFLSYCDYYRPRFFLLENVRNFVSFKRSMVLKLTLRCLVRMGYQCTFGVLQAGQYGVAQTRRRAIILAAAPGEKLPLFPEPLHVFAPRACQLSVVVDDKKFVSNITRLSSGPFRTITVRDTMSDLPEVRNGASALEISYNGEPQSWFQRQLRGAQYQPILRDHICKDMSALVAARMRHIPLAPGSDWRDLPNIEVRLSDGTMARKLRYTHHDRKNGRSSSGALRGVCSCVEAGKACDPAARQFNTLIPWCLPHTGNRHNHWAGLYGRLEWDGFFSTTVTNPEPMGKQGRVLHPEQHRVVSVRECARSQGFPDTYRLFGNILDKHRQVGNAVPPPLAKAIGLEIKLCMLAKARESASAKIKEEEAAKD
UniProt Q9H2U1: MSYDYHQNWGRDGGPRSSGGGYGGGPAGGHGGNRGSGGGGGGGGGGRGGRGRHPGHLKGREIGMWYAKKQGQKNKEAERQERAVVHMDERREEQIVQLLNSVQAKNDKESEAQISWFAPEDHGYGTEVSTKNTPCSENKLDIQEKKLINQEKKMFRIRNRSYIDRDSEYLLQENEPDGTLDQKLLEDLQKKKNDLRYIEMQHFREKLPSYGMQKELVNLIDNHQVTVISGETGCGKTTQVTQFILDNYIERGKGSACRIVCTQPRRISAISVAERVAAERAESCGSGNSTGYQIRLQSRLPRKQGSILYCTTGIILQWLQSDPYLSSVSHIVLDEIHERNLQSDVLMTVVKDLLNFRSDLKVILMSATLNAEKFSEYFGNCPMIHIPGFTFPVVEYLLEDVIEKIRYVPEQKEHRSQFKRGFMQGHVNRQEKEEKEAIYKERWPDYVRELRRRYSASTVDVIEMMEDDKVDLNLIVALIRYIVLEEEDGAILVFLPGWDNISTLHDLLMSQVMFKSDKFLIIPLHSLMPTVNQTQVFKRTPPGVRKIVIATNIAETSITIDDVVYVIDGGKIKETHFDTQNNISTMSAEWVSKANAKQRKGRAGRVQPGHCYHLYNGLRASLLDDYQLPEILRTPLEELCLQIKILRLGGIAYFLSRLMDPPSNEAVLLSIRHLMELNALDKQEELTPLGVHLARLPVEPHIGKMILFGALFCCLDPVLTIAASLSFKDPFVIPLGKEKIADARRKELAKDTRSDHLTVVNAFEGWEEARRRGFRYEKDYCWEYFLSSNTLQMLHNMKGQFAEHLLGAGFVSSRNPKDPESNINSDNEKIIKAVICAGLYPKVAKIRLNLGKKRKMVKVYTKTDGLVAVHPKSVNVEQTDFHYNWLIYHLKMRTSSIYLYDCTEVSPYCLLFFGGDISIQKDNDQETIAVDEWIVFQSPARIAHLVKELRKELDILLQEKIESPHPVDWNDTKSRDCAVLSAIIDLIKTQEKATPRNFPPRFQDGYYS
UniProt Q9NSV4, whole entry, looked up: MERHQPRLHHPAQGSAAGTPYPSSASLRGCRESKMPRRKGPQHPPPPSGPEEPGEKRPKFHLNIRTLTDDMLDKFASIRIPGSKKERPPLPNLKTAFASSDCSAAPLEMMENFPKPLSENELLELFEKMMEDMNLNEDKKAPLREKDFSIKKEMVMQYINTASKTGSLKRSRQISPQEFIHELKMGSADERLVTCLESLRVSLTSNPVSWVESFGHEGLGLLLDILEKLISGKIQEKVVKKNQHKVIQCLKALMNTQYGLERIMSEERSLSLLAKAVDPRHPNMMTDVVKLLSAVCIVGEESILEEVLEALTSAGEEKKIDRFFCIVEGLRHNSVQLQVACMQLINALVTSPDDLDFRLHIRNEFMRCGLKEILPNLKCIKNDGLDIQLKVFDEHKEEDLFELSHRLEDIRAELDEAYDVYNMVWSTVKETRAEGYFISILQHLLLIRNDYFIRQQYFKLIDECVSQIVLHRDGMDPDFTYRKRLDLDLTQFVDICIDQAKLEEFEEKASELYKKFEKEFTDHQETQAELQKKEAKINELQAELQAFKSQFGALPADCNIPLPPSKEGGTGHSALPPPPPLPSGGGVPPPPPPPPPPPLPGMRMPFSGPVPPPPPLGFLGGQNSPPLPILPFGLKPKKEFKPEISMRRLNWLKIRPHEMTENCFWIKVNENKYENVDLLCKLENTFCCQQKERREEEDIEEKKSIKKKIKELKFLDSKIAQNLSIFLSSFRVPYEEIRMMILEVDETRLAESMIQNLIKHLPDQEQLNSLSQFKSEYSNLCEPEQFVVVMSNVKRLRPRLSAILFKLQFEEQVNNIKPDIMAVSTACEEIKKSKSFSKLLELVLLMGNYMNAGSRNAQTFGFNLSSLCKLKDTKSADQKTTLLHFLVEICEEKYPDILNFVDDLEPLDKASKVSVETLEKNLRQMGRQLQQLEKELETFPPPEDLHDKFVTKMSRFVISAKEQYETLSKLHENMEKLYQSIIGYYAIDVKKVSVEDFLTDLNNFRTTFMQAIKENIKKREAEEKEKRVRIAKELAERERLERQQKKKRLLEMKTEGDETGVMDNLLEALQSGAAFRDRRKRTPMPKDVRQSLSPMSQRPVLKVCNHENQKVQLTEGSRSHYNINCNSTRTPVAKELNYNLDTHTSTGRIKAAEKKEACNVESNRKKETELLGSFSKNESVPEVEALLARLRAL
UniProt Q5JWR5: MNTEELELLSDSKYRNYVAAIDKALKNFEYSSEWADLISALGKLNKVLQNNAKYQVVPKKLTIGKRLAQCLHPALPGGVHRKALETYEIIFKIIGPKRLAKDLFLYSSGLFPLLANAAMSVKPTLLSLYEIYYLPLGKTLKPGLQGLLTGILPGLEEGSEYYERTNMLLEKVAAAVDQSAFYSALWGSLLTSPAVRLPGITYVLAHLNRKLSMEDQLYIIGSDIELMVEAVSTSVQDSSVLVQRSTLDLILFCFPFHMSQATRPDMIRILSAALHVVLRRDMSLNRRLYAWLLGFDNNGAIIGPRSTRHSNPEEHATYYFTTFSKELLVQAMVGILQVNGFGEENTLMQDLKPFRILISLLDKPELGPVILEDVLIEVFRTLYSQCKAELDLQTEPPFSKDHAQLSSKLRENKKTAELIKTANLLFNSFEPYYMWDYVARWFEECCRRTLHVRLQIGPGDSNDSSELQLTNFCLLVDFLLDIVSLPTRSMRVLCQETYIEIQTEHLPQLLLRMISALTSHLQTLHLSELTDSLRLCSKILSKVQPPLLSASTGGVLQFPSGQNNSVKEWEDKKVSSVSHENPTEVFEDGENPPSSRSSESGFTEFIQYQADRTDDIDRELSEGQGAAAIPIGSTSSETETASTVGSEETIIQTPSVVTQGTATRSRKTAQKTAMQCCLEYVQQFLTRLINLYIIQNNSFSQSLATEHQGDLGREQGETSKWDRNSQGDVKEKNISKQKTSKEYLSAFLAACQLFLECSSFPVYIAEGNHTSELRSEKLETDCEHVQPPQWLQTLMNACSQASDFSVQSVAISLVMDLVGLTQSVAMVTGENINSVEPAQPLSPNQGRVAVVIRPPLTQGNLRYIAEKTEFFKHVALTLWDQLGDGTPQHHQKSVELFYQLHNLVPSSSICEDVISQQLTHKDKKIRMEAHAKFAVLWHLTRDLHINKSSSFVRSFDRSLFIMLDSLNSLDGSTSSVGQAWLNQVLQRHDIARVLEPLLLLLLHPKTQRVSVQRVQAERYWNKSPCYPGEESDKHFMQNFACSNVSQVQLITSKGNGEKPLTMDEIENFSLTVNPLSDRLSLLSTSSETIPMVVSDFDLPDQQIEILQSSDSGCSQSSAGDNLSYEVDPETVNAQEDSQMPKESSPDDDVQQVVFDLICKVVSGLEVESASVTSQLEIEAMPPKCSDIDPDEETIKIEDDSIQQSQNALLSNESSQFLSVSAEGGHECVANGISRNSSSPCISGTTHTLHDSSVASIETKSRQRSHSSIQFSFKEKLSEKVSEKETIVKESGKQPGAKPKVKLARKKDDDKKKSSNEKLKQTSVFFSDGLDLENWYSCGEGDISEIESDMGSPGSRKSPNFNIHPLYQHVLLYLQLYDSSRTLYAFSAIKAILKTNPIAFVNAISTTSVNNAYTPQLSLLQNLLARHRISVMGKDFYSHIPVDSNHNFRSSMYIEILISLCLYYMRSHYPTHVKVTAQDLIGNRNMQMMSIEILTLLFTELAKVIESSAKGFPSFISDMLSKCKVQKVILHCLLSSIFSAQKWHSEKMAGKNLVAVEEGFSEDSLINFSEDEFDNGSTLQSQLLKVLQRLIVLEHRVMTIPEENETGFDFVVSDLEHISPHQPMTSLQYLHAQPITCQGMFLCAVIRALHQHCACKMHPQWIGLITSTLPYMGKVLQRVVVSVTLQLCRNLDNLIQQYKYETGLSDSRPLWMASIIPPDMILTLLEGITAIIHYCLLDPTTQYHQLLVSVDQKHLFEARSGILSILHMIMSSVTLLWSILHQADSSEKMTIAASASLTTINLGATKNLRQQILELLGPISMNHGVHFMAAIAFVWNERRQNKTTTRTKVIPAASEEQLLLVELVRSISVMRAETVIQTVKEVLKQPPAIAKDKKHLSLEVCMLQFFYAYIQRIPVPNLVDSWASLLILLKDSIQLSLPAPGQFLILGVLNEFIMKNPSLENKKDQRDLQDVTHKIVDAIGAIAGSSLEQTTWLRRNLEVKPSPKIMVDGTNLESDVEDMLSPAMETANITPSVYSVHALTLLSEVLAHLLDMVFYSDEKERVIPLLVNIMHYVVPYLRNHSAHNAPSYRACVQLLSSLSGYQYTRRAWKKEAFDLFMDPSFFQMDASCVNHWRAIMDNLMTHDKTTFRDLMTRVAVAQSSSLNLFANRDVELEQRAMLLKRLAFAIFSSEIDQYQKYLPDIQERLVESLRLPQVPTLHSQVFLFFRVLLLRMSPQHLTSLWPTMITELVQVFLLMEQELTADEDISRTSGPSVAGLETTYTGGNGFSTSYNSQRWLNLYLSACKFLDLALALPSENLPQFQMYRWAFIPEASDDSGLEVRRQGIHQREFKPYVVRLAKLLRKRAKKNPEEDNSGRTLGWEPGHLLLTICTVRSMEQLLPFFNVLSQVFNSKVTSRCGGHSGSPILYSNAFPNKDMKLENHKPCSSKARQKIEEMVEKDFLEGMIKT

Key:
Test in all cases: log2 fold change, soluble protein after heating vs DMSO (PISA); higher = thermal stabilisation; K562 lysate, 10 uM; active = over 0.2 and 3.5 SD of the protein, either way, in both replicates (recomputed)
[1] = compound: C1=CC=C(C=C1)[C@H](COC2=CC3=C(C=C2)NC(=O)N3)NC(=O)C4=CC=CN(C4=O)CC5=CC(=C(C=C5)F)F
Outline: (§1)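 K562 pellets were dounce-homogenised in PBS pH 7.4 containing 1 mM MgCl2, and the crude extract, at 1 mg/mL protein, was exposed to 10 μM compound for 30 min. Aliquots were heated for 3 min across 48°C-58°C, pooled, brought to 0.5% NP-40 at 4°C and spun at 21,000xg for 90 min, with the supernatant taken as soluble protein. TMTpro 16plex LC-MS/MS with equalised channel sums quantified that protein. Values are log-two fold changes in thermal stability relative to solvent controls, taken from duplicates.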

[2] = compound: CC1=C(SC2=C1C(=N[C@H](C3=NN=C(N32)C)CC(=O)N)C4=CC=C(C=C4)Cl)C
Outline: as §1

[3] = compound: CC1=C2C(=CC=C1)N=C(N(C2=O)C3=CC=CC=C3C)CN4C=NC5=C(N=CN=C54)N
Outline: as §1

[4] = compound: Cc1sc2c(c1C)C(c1ccc(Cl)cc1)=N[C@@H](CC(=O)OC(C)(C)C)c1nnc(C)n1-2
Outline: as §1

[5] = compound: c1ccc([C@@H]2C[C@H]2NC2CCNCC2)cc1
Outline: as §1

Measured: log2 fold change

DNM2 (UniProt P50570)
inactive: [1] -0.01 | [2] 0.038 | [3] 0.035 | [4] 0.05 | [5] 0.057

DNAJC17 (UniProt Q9NVM6)
inactive: [1] 0.018 | [2] 0.014 | [3] 0.043 | [4] -0.048 | [5] 0.011

DMAC2L (UniProt Q99766)
inactive: [1] -0.031 | [2] -0.048 | [3] 0.057 | [4] -0.005 | [5] -0.061

DICER1 (UniProt Q9UPY3)
inactive: [1] 0.028 | [2] 0.006 | [3] 0.045 | [4] 0.029 | [5] -0.038

DHX9 (UniProt Q08211)
inactive: [1] 0.015 | [2] 0.007 | [3] 0.011 | [4] 0.019 | [5] 0.038

DNMT1 isoform 2 (UniProt P26358)
inactive: [1] 0.019 | [2] 0.001 | [3] -0.009 | [4] 0.023 | [5] 0.015

DHCR24 (UniProt Q15392)
inactive: [1] 0.039 | [2] -0.032 | [3] 0.052 | [4] 0.145 | [5] -0.104

DHX36 (UniProt Q9H2U1)
inactive: [1] 0.027 | [2] 0.051 | [3] -0.009 | [4] 0.014 | [5] -0.008

DMTN (UniProt Q08495)
inactive: [1] 0.026 | [2] 0.009 | [3] -0.019 | [4] -0.01 | [5] -0.005

DNAJA2 (UniProt O60884)
inactive: [1] -0.007 | [2] -0.002 | [3] 0.009 | [4] 0.046 | [5] -0.023

DIS3 (UniProt Q9Y2L1)
inactive: [1] 0.012 | [2] 0.025 | [3] 0.007 | [4] 0.051 | [5] 0.042

DOCK9 isoform 4 (UniProt Q9BZ29)
inactive: [1] 0.049 | [2] -0.028 | [3] 0.019 | [4] 0.029 | [5] -0.021

DNAJB1 (UniProt P25685)
inactive: [1] 0 | [2] 0.003 | [3] -0.008 | [4] -0.023 | [5] 0.045

DHDDS isoform 2 (UniProt Q86SQ9)
inactive: [1] 0.043 | [2] 0.125 | [3] 0.058 | [4] 0.027 | [5] 0

DIP2B (UniProt Q9P265)
inactive: [1] 0.013 | [2] 0.024 | [3] 0.021 | [4] 0.003 | [5] -0.014

DLG1 isoform 2 (UniProt Q12959)
inactive: [1] 0.036 | [2] 0.008 | [3] 0.052 | [4] 0.006 | [5] 0.002

DHX35 (UniProt Q9H5Z1)
inactive: [1] 0.005 | [2] 0.064 | [3] -0.182 | [4] 0.019 | [5] -0.061

DIDO1 (UniProt Q9BTC0)
inactive: [1] -0.126 | [2] 0.022 | [3] 0.096 | [4] 0.007 | [5] 0.01

DIAPH3 (UniProt Q9NSV4)
inactive: [1] -0.09 | [2] 0.017 | [3] -0.035 | [4] 0.099 | [5] 0.195

DNAJC1 (UniProt Q96KC8)
inactive: [1] -0.113 | [2] -0.021 | [3] 0.039 | [4] -0.011 | [5] 0.021

DNAJC16 (UniProt Q9Y2G8)
inactive: [1] -0.081 | [2] 0.507 | [4] -0.252 | [5] 0.005

DNAJB11 (UniProt Q9UBS4)
inactive: [1] 0.032 | [2] 0.011 | [3] 0.034 | [4] -0.033 | [5] -0.053

DPAGT1 (UniProt Q9H3H5)
inactive: [1] -0.073 | [2] 0.014 | [5] -0.039

Copied from the entries so far (2 entries):
DNMT1 isoform 2 (UniProt P26358)
inactive: [1] 0.019 | [2] 0.001 | [3] -0.009 | [4] 0.023 | [5] 0.015

DHCR24 (UniProt Q15392)
inactive: [1] 0.039 | [2] -0.032 | [3] 0.052 | [4] 0.145 | [5] -0.104

Next part.

DHRS13 (UniProt Q6UX07)
inactive: [1] -0.13 | [2] 0.059 | [4] -0.099

DHX16 (UniProt O60231)
inactive: [1] 0.022 | [2] 0.02 | [3] 0.024 | [4] 0.013 | [5] 0.058

DNMBP (UniProt Q6XZF7)
inactive: [1] 0.023 | [2] 0.003 | [3] -0.013 | [4] -0.024 | [5] -0.034

DNM1 (UniProt Q05193)
inactive: [1] -0.044 | [2] -0.011 | [4] 0.01 | [5] 0.039

DHX15 (UniProt O43143)
inactive: [1] 0.018 | [2] 0.019 | [3] 0.009 | [4] -0.015 | [5] -0.004

DHX57 (UniProt Q6P158)
inactive: [1] 0.029 | [2] -0.006 | [3] -0.012 | [4] 0.021 | [5] -0.008

DNAJC13 (UniProt O75165)
inactive: [1] -0.045 | [2] 0.037 | [3] 0.03 | [4] 0.027 | [5] -0.006

DIMT1 (UniProt Q9UNQ2)
inactive: [1] -0.01 | [2] 0.032 | [3] -0.013 | [4] -0.003 | [5] 0.005

DMAC2 isoform 4 (UniProt Q9NW81)
inactive: [1] -0.035 | [2] 0.05 | [3] 0.014 | [5] 0.087

DHX29 (UniProt Q7Z478)
inactive: [1] 0.019 | [2] 0.001 | [3] 0 | [4] -0.003 | [5] 0.007

DIS3L (UniProt Q8TF46)
inactive: [1] -0.123 | [2] 0.096 | [3] 0.082 | [4] 0.033 | [5] 0.015

DLGAP5 isoform 3 (UniProt Q15398)
inactive: [1] -0.167 | [2] 0.031 | [4] -0.036 | [5] 0.021

DMD isoform 14 (UniProt P11532)
inactive: [1] 0.027 | [2] 0.102 | [4] -0.007 | [5] 0.231

DNPEP (UniProt C9JBE1)
inactive: [1] -0.054 | [2] 0.018 | [3] -0.17 | [5] -0.16

DOP1A (UniProt Q5JWR5)
inactive: [1] 0.081 | [2] -0.036 | [4] -0.237

DPCD (UniProt Q9BVM2)
inactive: [1] 0.023 | [2] 0.009 | [3] 0.002 | [4] 0.008 | [5] 0.047
